PubChem BioAssay AID504784, Drosophila RNAi Screening Center, 2011

Aim: 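Fly genes whose silencing alters how much lipid cells keep in droplets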 (primary screen)
System: Drosophila Kc167 embryonic cells
Reagents: long dsRNA against Drosophila genes, about 250 ng dsRNA per well
Timing: 4 days
Conditions: cells fed 400 µM oleic acid bound to BSA
Measured: 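Microscope images give a droplet-to-nucleus area ratio, taken as log and converted to a screen-wide B-score; higher values mean greater lipid storage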
Scale: droplet/nuclear area B-score: higher = more stored lipid (overstorage)
The screen tested about 17,000 reagents; this is an unselected part of those with a known target gene and a result. 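Each column is one replicate's B-score; the combined score over replicates was not deposited, so single values may mislead.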 The numbers tell different reagents against one gene apart. Names joined by + are all predicted targets of the reagent.

gene	reagent	droplet/nuclear area B-score, replicate 1	droplet/nuclear area B-score, replicate 2	droplet/nuclear area B-score, replicate 3
CG34396 (GeneID 37398)	1	0.969	0.668	
CG34396 (GeneID 37398)	2	-0.1	0.489	
CG1137 (GeneID 40803)	1	-0.851	2.05	
AIMP2 (GeneID 39690)	1	-0.384	0.0276	2.66
Cyp305a1 (GeneID 40161)	1	-1.67	0.293	-0.0124
Gr22b (GeneID 117492)	1	-0.0292	-1.52	
CG3168 (GeneID 31612)	1	-0.381	-0.541	-0.648
CG15472 (GeneID 31409)	1	0.707	0.225	
CG13293 (GeneID 38695)	1	0.743	-0.156	
Hsp68 (GeneID 42852)	1	-0.116	-0.567	
cer (GeneID 37229)	1	1.22	0.855	
nebu (GeneID 39458)	1	-1.03	-1.55	
nebu (GeneID 39458)	2	-0.71	-1.77	
CG11815 (GeneID 38263)	1	0.271	1.57	
CG3437 (GeneID 39096)	1	-0.0365	-0.263	
Uros1 (GeneID 31817)	1	0.0488	-1.47	0.44
SecS (GeneID 40681)	1	0.11	-0.611	
CG18666 (GeneID 50441)	1	0.0348	-1	
CG14743 (GeneID 35860)	1	-0.106	-0.278	
CG46298 (GeneID 36091)	1	-0.201	-0.636	
gish (GeneID 49701)	1	0.148	4.44	
CG30039 (GeneID 246411)	1	1.15	1.79	
CG9759 (GeneID 41661)	1	-0.0771	-0.00318	
Obp56i (GeneID 246667)	1	0.758	0.776	
TkR99D (GeneID 43551)	1	-0.746	-0.164	
CG14757 (GeneID 35797)	1	-1.13	-0.736	
Sr-CIII (GeneID 44382)	1	1.01	-0.0401	
axed (GeneID 38741)	1	-1.24	1.9	
axed (GeneID 38741)	2	2.41	1.65	
CG17059 (GeneID 50227)	1	0.00107	-1.88	
Or35a (GeneID 34918)	1	-2.35	1.04	
Dup99B (GeneID 2768691)	1	-1.02	0.859	
Rcd4 (GeneID 34158)	1	0.0383	0.00713	
trsn (GeneID 36110)	1	-0.118	1.14	
CG5555 (GeneID 42302)	1	-0.00982	0.409	
Tat (GeneID 32381)	1	-2.51	0.1	
CG42342 (GeneID 7354466)	1	-2.26	1.5	
CG42342 (GeneID 7354466)	2	-0.403	-1.15	
CG42342 (GeneID 7354466)	3	-0.0228	0.22	
CG42342 (GeneID 7354466)	4	0.913	0.0192	
CG42342 (GeneID 7354466)	5	0.972	-2.51	
CG42342 (GeneID 7354466)	6	0.00366	0.0308	
CG42342 (GeneID 7354466)	7	3.77	-2.93	
CG42342 (GeneID 7354466)	8	0.167	0.535	
MnM (GeneID 38384)	1	1.41	-0.65	
tzn (GeneID 40299)	1	-4.03	-2.76	2.63
ND-13A (GeneID 33744)	1	-0.128	0.448	
CG4733 (GeneID 42368)	1	0.8	0.979	
CG31677 (GeneID 318880)	1	-0.379	0.671	
ppk27 (GeneID 38440)	1	1.05	-1.58	
ppk27 (GeneID 38440)	2	2.98	-0.0678	
CG13575 (GeneID 37883)	1	-0.156	-0.452	
CG13575 (GeneID 37883)	2	-0.648	-0.0246	
Sgt (GeneID 35052)	1	0.608		
CG10332 (retired record) + IM18	1	0.824	-0.813	
cg (GeneID 36571)	1	-0.562	0.067	
cg (GeneID 36571)	2	-1.35	-0.606	
CG12645 (GeneID 31947)	1	-0.476	-2.21	0.802
NaPi-T (GeneID 36651)	1		-1.15	
spab (GeneID 35901)	1	-0.804	0.0195	
Rad60 (GeneID 42748)	1	0.146	-2.63	
Sirt2 (GeneID 42414)	1	-0.847	-2.84	
iPLA2-VIA (GeneID 39160)	1	-1.09	-0.47	
Gr22e (GeneID 117498)	1	0.696	-0.659	
CG8668 (GeneID 34107)	1	-1.04	0.329	
CG14246 (GeneID 3772140)	1	-1.12	0.245	1.74
CG9514 (GeneID 32418)	1	-1.07	-1.07	
CG9514 (GeneID 32418)	2	0.982	0.0133	
sas (GeneID 40861)	1	-0.00987	-0.507	
Or85a (GeneID 40991)	1	0.48	-0.0419	
CG6654 (GeneID 41831)	1	-1.87	9.69	
Fum1 (GeneID 31605)	1	0.191	0.648	0.0657
kkv (GeneID 45884)	1	-3.84	0.239	
CG7943 (GeneID 43574)	1	0.261	1.02	
Cp18 (GeneID 38998)	1	-0.00864	-0.0771	
CG15930 (GeneID 31446)	1	0.633	-0.0141	
Sec13 (GeneID 44437)	1	-0.97	0.13	
PIP5K59B (GeneID 37633)	1	1.56	0.597	
PIP5K59B (GeneID 37633)	2	-0.72	0.183	
CG15530 (GeneID 43589)	1	-1.79	0.0141	
CG32221 (GeneID 317924)	1	-0.54	0.0621	
bgm (GeneID 44117)	1	3.74	2.05	
CG4669 (GeneID 38608)	1	-0.118	-0.716	
bdg (GeneID 36747)	1	0.138	-1.69	
CG15597 (GeneID 40767)	1	-0.258	0.405	0.151
Irk1 (GeneID 42742)	1	1.28	0.701	
sphe (GeneID 32648)	1	-3.45	-0.264	
CG16926 (GeneID 50205)	1	3.11	-0.16	
Ubc87F (GeneID 41682)	1	0.0662	0.759	
CG14780 (GeneID 31102)	1	1.4	-0.055	
Cyp6a20 (GeneID 36664)	1	-0.167	-0.132	
Non2 (GeneID 38341)	1	1.22	0.0678	
CG10365 (GeneID 42801)	1	1.27	-1.61	
TM9SF4 (GeneID 34778)	1	0.577	-0.151	
TM9SF4 (GeneID 34778)	2	-0.0763	0.491	
CG33109 (GeneID 326258)	1	-1.94	0.145	
Rpn3 (GeneID 35176)	1	-0.0444	2.25	
CG30479 (GeneID 36631)	1	-1.1	0.301	
Grl36a (GeneID 170887)	1	1.32	1.43	
Stip1 (GeneID 33202)	1	0.373	0.075	
Mfap1 (GeneID 38256)	1	-3.35	-1.99	
CG15579 (GeneID 50380)	1	-0.92	-0.262	
Hex-A (GeneID 45875)	1	-1.9	-3.65	-3.32
CG16903 (GeneID 31178)	1	-0.665	0.212	
CG15880 (GeneID 33257)	1	-0.0707	0.0282	

Targets above whose target name begins with O or o:
gene	reagent	droplet/nuclear area B-score, replicate 1	droplet/nuclear area B-score, replicate 2	droplet/nuclear area B-score, replicate 3
Obp56i (GeneID 246667)	1	0.758	0.776	
Or35a (GeneID 34918)	1	-2.35	1.04	
Or85a (GeneID 40991)	1	0.48	-0.0419	
